The target of the series is WW2-3-4-p53wt (Nedd4 WW2-3-4 fused to human p53) (Homo sapiens) (UniProt P04637). Briefly: EMSA. The conditions noted are these: recombinant protein, protein details: His tag, Nedd4 WW2-3-4 fusion, label: biotin (biotin-dUTP labelling of annealed probe).

The exact form of at least one protein or probe is not confirmed.

Consider “AATGTCCGGGCATGTCCGGGCATGTCCGGGCATGT / AATCATGCCCGGACATGCCCGGACATGCCCGGACA [p53 sequence-specific DNA probe]”, for which the binding result is reported as “binds” (NVoy added, binding greatly improved) and “binds” (with Pt-Dd).

Source of the values: paper PMC3459938.
